Test results from article PMC8844409.

Biological target: GFP-Dsn1^Δ326-349 (chicken Dsn1 lacking the Ndc80C-binding region) (chicken)
Assay: co-IP; GFP-Trap Magnetic agarose on clarified lysates of cKO-Dsn1 DT40 cells expressing GFP-Dsn1^WT or GFP-Dsn1^Δ326-349, tetracycline 36 h (WT cells also nocodazole for the last 10 h); lysis buffer 50 mM NaPi pH 8.0, 300 mM NaCl, 0.1% NP40; 4 °C, 1 h; immunoblot with anti-Dsn1, -Mis12, -Knl1, -Ndc80

binding: binds
B1: Mis12 (chicken) (protein, UniProt Q1T769 1-210)
chain: MSVRPMAYETQFFGFTPQTCMLRIYLAFQDYLFEMMVVVESVILKKLEALPAVQISRFEIRKSTEKFLHFMKARFDQLFEKMEEVLLQLVLSIPDNVLLPEDRVHQQYPYSQEEFCALQDEISQLQQQCRAEAAAGQALRAELEEQRAVQAELEKVVQWFDGLENVCREHGTGNFKESLVFLTQNCKKLQDVLRDVEEKSKKIKKRQQLL

No constants are given. Whether binding was seen depends on the method and setting. Binding seen in cells or lysates may run through a third protein. Binding can be weak; no strength is given.
